Results on 3 substances are retold here after article PMC6106057.

By UniProt entry, the sequences of proteins in these tests, tags left out.
UniProt Q9HGY5: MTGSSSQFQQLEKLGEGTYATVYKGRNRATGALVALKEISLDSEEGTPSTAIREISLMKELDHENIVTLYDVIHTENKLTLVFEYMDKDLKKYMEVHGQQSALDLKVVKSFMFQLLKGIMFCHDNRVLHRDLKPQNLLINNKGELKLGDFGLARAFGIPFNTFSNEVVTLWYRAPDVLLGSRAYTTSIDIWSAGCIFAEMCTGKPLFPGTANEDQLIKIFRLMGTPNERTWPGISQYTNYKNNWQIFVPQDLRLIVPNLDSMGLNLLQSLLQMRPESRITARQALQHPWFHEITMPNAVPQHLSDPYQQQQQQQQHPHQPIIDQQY

Assay [1] deals with LexA-HA-Pho85 (Pho85 bait, pC2HB-Pho85) (Candida albicans) (UniProt Q9HGY5). Description: two-hybrid; C2H, step 2 of the validation protocol: bait and prey plasmids cotransformed into diploid SC2H3, growth on selective medium (SC-Met-Cys-His and/or SC-Met-His; which one is not told for these pairs).
The target of assay [2] is Pcl5 bait (pC2HB-Pcl5) (Candida albicans) (UniProt Q5AK08). The assay is described as follows: two-hybrid; C2H, bait and prey plasmids cotransformed into diploid SC2H3; 5-fold dilution spot assay on SC-Met-His (lower expression from the MET3 promoter), 30°C.
Assay [3] shares this target. Description: two-hybrid; C2H, bait and prey plasmids cotransformed into diploid SC2H3; 5-fold dilution spot assay on SC-Met-Cys-His (strong expression from the MET3 promoter), 30°C.
Assay [4] has as its target LexA-HA-Pho85 (Pho85 bait, pC2HB-Pho85) (Candida albicans) (UniProt Q9HGY5). Description: two-hybrid; C2H, bait and prey plasmids cotransformed into diploid SC2H3; 5-fold dilution spot assay on SC-Met-His (lower expression from the MET3 promoter), 30°C.
The target is the same in assay [5]. The assay is described as follows: two-hybrid; C2H, bait and prey plasmids cotransformed into diploid SC2H3; 5-fold dilution spot assay on SC-Met-Cys-His (strong expression from the MET3 promoter), 30°C.
Assay [6] shares this target. The assay is described as follows: co-IP; lysate of SC2H3 with bait and prey plasmids, 500 µg protein, anti-HA magnetic beads overnight at 4°C, blot with anti-FLAG M2-HRP.

No constants are given. Whether binding was seen depends on the method and setting. For part of these data: Binding seen in cells or lysates may run through a third protein. Some entries that bind do so weakly or less than the wild type.

As for “Pcl7 prey (from UniProt A0A1D8PDW6 1-684)”, in assay [1], the binding result is given as “binds”.
On to “Pho85 prey (pC2HP-Pho85) (from UniProt Q9HGY5 1-326)”, for which the binding entry in assay [2] and in assay [3] was “binds” each time.
As to “VP16-FLAG-Pcl5 (Pcl5 prey, pC2HP-Pcl5) (from UniProt Q5AK08 1-304)”, the binding entry in assay [4], in assay [5] and in assay [6] was “binds” throughout.
